# Data from PubChem BioAssay AID493014 (National Center for Advancing Translational Sciences (NCATS), 2011).
# The other results are listed elsewhere or left out. These are further read-outs of the screen, such as a control signal, another cell line or another target. No call is given for them. The list favours compounds with an active or inconclusive main result. Potencies come from curve fits of mixed quality, noted in brackets.
# Assay: qHTS Assay to Find Inhibitors of Chronic Active B-Cell Receptor Signaling
# Conditions: ABC-DLBCL IkBa-CBG/CBR reporter, luminescence ratio (green luciferase fused to IkBa over red control in TMD8 lymphoma cells), 4 h
# Procedure, shortened: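 TMD8 human ABC-DLBCL cells with doxycycline-inducible IκBα–green luciferase fusion and unfused red luciferase, in 0.5% FBS medium; compounds up to 46 uM, 4 h at 37C. Green/red luminescence ratio, filter-overlap corrected, fitted to concentration-response curves.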
# [1] = measured here: IkBa-CBG green luminescence
# [2] = measured here: CBR red luminescence, cell number
Structure (SMILES),AC50 [1],AC50 [2]
COc1ccc(C2=Nn3c(nnc3-c3ccccc3F)SC2)cc1OCC1CC1,"10.3 µM [falling, partial curve]",
Cc1ccc(-c2nc3ncccc3o2)cc1NC(=O)c1cccnc1,,"2.82 µM [falling, single point]"
c1ccc2c(c1)oc1c(Nc3ccc4c(c3)OCO4)ncnc12,,"3.98 µM [falling, full curve, poor fit]"
COc1ccc(C(=O)NNC(=O)c2ccccn2)cc1,,"0.326 µM [falling, full curve]"
C/C(CC(=O)NC1CCCCC1)=N\NC(=O)c1ccccc1C,,"11.2 µM [falling, partial curve, poor fit]"
Cc1ccc(NC(=O)CSc2nc3n[nH]c(C)c3c(=N)n2-c2ccccc2C)cc1C,,"2.51 µM [rising, partial curve, poor fit]"
CCS(=O)(=O)N1CCC(C(=O)NCCc2ccc(C)cc2)CC1,"2.91 µM [rising, partial curve, poor fit]","4.11 µM [falling, single point]"
Cc1c(Cl)ccc2c1NC(=O)C21NC(CCC(N)=O)[C@H]2C(=O)N(c3ccc(Cl)cc3)C(=O)[C@H]21 (some centres undefined),,"35.5 µM [falling, single point]"
COC(CN(C(=O)CCl)C(C(=O)NC1CCCCC1)c1ccccc1C)OC (centres undefined),,"2.31 µM [falling, partial curve, poor fit]"
c1ccc(-c2ccccc2OCCCCN2CCCCC2)cc1,,"29.1 µM [falling, single point]"
O=C(Nc1ccc2ncccc2c1)c1ccccc1Br,,"12.6 µM [falling, single point]"
CCC(=O)Nc1ccc(Cl)c(NC(=O)c2cccnc2)c1,,"0.651 µM [rising, partial curve, poor fit]"
COc1cc(/C=C/C(=O)c2ccc(F)cc2)cc(OC)c1OC,,"10 µM [falling, partial curve]"
COc1cccc(C(=O)NCCSCc2c(F)cccc2Cl)c1,,"15.8 µM [falling, partial curve, poor fit]"
CCOc1ccc(S(=O)(=O)N(CC(=O)O)c2ccc(C)cc2)cc1,,"0.103 µM [rising, full curve, poor fit]"
COc1cc(-c2nnn(CC(=O)NC3CCS(=O)(=O)C3)n2)ccc1OCc1ccccc1 (centres undefined),,"35.5 µM [falling, single point]"
O=C1NN=C(c2ccc(Cl)cc2)CC1c1cccc(Cl)c1 (centres undefined),,"16.4 µM [falling, partial curve]"
Brc1ccc(OCCCOc2cccc3cccnc23)cc1,,"2.82 µM [rising, partial curve, poor fit]"

# Single records, from the list above.
# Cc1ccc(-c2nc3ncccc3o2)cc1NC(=O)c1cccnc1 as listed: AC50 [2]: 2.82 µM [falling, single point]
# COC(CN(C(=O)CCl)C(C(=O)NC1CCCCC1)c1ccccc1C)OC (centres undefined) as listed: AC50 [2]: 2.31 µM [falling, partial curve, poor fit]
